Some of the results follow. Repeats are few or missing, and single values can be far off.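 Imaging used 1,536-well plates; nuclei positive for cleaved PARP by antibody were divided by total DNA-stained nuclei to yield the apoptosis fraction. Doses for screening kept most cells viable, and cell lines differ markedly in resting and induced cleaved-PARP levels.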

This is an account of results in the supplement of paper PMC4604168 (melanoma cell lines).

Some test systems named below: WM115; WM1716; WM1745; WM3526; WM3619; WM451Lu.
What all share (assay): cleaved PARP positive nuclei fraction relative to DMSO control; melanoma cells; higher = more apoptosis
Conditions in all cases: library dose: low library concentration; 72 h

As for `NC(=O)Nc1cc(-c2cccc(F)c2)sc1C(=O)N[C@H]1CCCNC1` + O=C(O)C(=O)Nc1sc2c(c1C(=O)O)CCNC2 [TCS401] (first compound 0.02 µM, partner dose 1.66667 µM), the “cleaved PARP positive nuclei fraction” value turned out to be 306% in the experiment on WM115; 64.8% in the experiment with WM1716; 110% in the experiment with WM1745; 62.1% with WM3526; 184% with WM3619; 401% in the experiment with WM451Lu.

As to `O=C(CCCCCCC(=O)Nc1ccccc1)NO` [vorinostat] + Cc1ccc(NC(=O)c2cccc(N(C)C)c2)cc1NC(=O)c1ccc(O)cc1 [ZM336372] (first compound 0.08 µM, partner dose 2 µM), the “cleaved PARP positive nuclei fraction” value turned out to be 140% with WM115; 74.5% in the experiment with WM1716; 98.9% in the experiment on WM1745; 71% in the experiment with WM3526; 103% in the experiment on WM3619; 124% in the experiment on WM451Lu.

As for `CO[C@@H]1[C@H](N(C)C(=O)c2ccccc2)C[C@H]2O[C@]1(C)n1c3ccccc3c3c4c(c5c6ccccc6n2c5c31)C(=O)NC4` [Midostaurin] + O=C(Nc1cccc(Cl)c1)Nc1ncc(CCNc2ncnc3ccsc23)s1 [SNS314] (first compound 0.08 µM, partner dose 0.0008 µM), the “cleaved PARP positive nuclei fraction” value with WM115 came out at 389%; in the experiment with WM1716 it was 45.9%; in the experiment on WM1745, 223%; in the experiment with WM3526, 129%; in the experiment on WM3619, 122%; in the experiment on WM451Lu it was 109%.

Turning to `Cc1cc(N2CCOCC2)cc2[nH]c(-c3c(NC[C@@H](O)c4cccc(Cl)c4)cc[nH]c3=O)nc12` + OCCn1cc(-c2cnc3nnn(Cc4ccc5ncccc5c4)c3n2)cn1 [PF04217903] (first compound 0.2 µM, partner dose 1 µM), the “cleaved PARP positive nuclei fraction” value in the experiment with WM115 was 58.2%; in the experiment on WM1716, 67.4%; in the experiment on WM1745, 99.9%; in the experiment with WM3526 it was 129%; in the experiment with WM3619, 104%; with WM451Lu, 290%.

As for `Cc1nc(Nc2ncc(C(=O)Nc3c(C)cccc3Cl)s2)cc(N2CCN(CCO)CC2)n1` [dasatanib] + COc1ccc(-c2ccc3c(N4CCOCC4)nc(N4C[C@@H](C)O[C@@H](C)C4)nc3n2)cc1CO [KU0063794] (first compound 0.004 µM, partner dose 0.02 µM), the “cleaved PARP positive nuclei fraction” value with WM115 came out at 475%; in the experiment on WM1716, 244%; in the experiment on WM1745, 149%; in the experiment with WM3526, 75.9%; with WM3619, 116%; with WM451Lu, 74.6%.

`Clc1ccc(Nc2nnc(Cc3ccncc3)c3ccccc23)cc1` [vatalanib] + COC(=O)c1sccc1S(=O)(=O)Nc1ccc(Nc2ccccc2)cc1OC [GSK0660] (first compound 2 µM, partner dose 1 µM): the “cleaved PARP positive nuclei fraction” value in the experiment with WM115 amounted to 123%; with WM1716, 207%; in the experiment with WM1745 it was 81.2%; with WM3526, 68.4%; in the experiment with WM3619, 109%; in the experiment on WM451Lu, 335%.

With `CC1(C)NC(=O)N(c2ccc([N+](=O)[O-])c(C(F)(F)F)c2)C1=O` [nilutamide] + O=S(=O)(c1ccccc1)N(CC(F)(F)F)c1ccc(C(O)(C(F)(F)F)C(F)(F)F)cc1 [T0901317] (first compound 1 µM, partner dose 1.4 µM), the “cleaved PARP positive nuclei fraction” value turned out to be 215% in the experiment on WM115; 112% in the experiment with WM1716; 130% in the experiment with WM1745; 87.6% with WM3526; 80.3% with WM3619; 115% in the experiment with WM451Lu.

`O=C(CCCCCCC(=O)Nc1ccccc1)NO` [vorinostat] + O=C(Nc1cccc(Cl)c1)Nc1ncc(CCNc2ncnc3ccsc23)s1 [SNS314] (first compound 0.08 µM, partner dose 0.0008 µM): the “cleaved PARP positive nuclei fraction” value was found to be 132% in the experiment on WM115; 139% with WM1716; 121% in the experiment with WM1745; 58.8% with WM3526; 92.4% with WM3619; 123% with WM451Lu.

Turning to `OCc1c[nH]c2ccccc12` [Indole-3-carbinol] + C=CCn1c(=O)c2cnc(Nc3ccc(N4CCN(C)CC4)cc3)nc2n1-c1cccc(C(C)(C)O)n1 [MK1775] (first compound 0.8 µM, partner dose 0.02 µM), the “cleaved PARP positive nuclei fraction” value was 58.9% in the experiment with WM115; 48.7% in the experiment with WM1716; 132% in the experiment on WM1745; 252% in the experiment with WM3526; 174% in the experiment with WM3619; 97.6% in the experiment on WM451Lu.

Turning to `Cn1cncc1[C@@](N)(c1ccc(Cl)cc1)c1ccc2c(c1)c(-c1cccc(Cl)c1)cc(=O)n2C` [tipifarnib] + COc1ccc(COc2ccc(Cc3cnc(N)nc3N)cc2OC)cc1 [GW2580] (first compound 0.01 µM, partner dose 1 µM), the “cleaved PARP positive nuclei fraction” value in the experiment with WM115 is 198%; in the experiment on WM1716, 87.9%; in the experiment on WM1745, 113%; with WM3526 it was 148%; in the experiment with WM3619 it was 89.7%; in the experiment with WM451Lu, 25%.

On to `NC(=O)Nc1cc(-c2cccc(F)c2)sc1C(=O)N[C@H]1CCCNC1` + COc1cc(N2CCC(N3CCN(C)CC3)CC2)ccc1Nc1ncc(Cl)c(Nc2ccccc2S(=O)(=O)C(C)C)n1 [NVP-TAE684] (first compound 0.02 µM, partner dose 0.08 µM), for which the “cleaved PARP positive nuclei fraction” value with WM115 is 104%; in the experiment with WM1716, 114%; with WM1745, 120%; with WM3526 it was 68.5%; in the experiment with WM3619 it was 189%; in the experiment with WM451Lu, 72.3%.

Turning to `OCc1c[nH]c2ccccc12` [Indole-3-carbinol] + Oc1nc(-c2ccc(C(F)(F)F)cc2)nc2c1CSCC2 [XAV939] (first compound 0.8 µM, partner dose 2 µM), the “cleaved PARP positive nuclei fraction” value with WM115 was 71.5%; in the experiment on WM1716, 255%; in the experiment on WM1745, 112%; in the experiment with WM3526, 67.5%; with WM3619, 97.5%; in the experiment on WM451Lu it was 366%.

`Cn1cncc1[C@@](N)(c1ccc(Cl)cc1)c1ccc2c(c1)c(-c1cccc(Cl)c1)cc(=O)n2C` [tipifarnib] + COC(=O)c1sccc1S(=O)(=O)Nc1ccc(Nc2ccccc2)cc1OC [GSK0660] (first compound 0.01 µM, partner dose 1 µM): the “cleaved PARP positive nuclei fraction” value in the experiment on WM115 is 157%; in the experiment with WM1716 it was 127%; with WM1745 it was 90.6%; with WM3526, 39.2%; in the experiment on WM3619, 84.2%; in the experiment with WM451Lu, 35.6%.

In the case of `COCC[n+]1c2c(n(Cc3cnccn3)c1C)C(=O)c1ccccc1C2=O` + c1cc(-c2cnn3cc(-c4ccc(OCCN5CCCCC5)cc4)cnc23)ccn1 [Dorsomorphin] (first compound 0.0004 µM, partner dose 0.4 µM), the “cleaved PARP positive nuclei fraction” value is 156% in the experiment on WM115; 121% with WM1716; 122% in the experiment on WM1745; 75% with WM3526; 103% in the experiment on WM3619; 58% in the experiment on WM451Lu.

In the case of `COCC[n+]1c2c(n(Cc3cnccn3)c1C)C(=O)c1ccccc1C2=O` + O=S(=O)(c1ccccc1)N(CC(F)(F)F)c1ccc(C(O)(C(F)(F)F)C(F)(F)F)cc1 [T0901317] (first compound 0.0004 µM, partner dose 1.4 µM), the “cleaved PARP positive nuclei fraction” value was found to be 92.1% in the experiment with WM115; 73.4% in the experiment with WM1716; 134% with WM1745; 66.8% in the experiment with WM3526; 76.4% in the experiment with WM3619; 144% in the experiment with WM451Lu.

As to `OCc1c[nH]c2ccccc12` [Indole-3-carbinol] + COc1ccc(-c2ccc3c(N4CCOCC4)nc(N4C[C@@H](C)O[C@@H](C)C4)nc3n2)cc1CO [KU0063794] (first compound 0.8 µM, partner dose 0.02 µM), the “cleaved PARP positive nuclei fraction” value in the experiment with WM115 came out at 114%; in the experiment with WM1716 it was 159%; in the experiment with WM1745, 90.8%; with WM3526 it was 65.6%; in the experiment with WM3619 it was 70.4%; in the experiment on WM451Lu it was 41.2%.

Regarding `OCCn1cc(-c2cnc3nnn(Cc4ccc5ncccc5c4)c3n2)cn1` + O=S(=O)(c1ccccc1)N(CC(F)(F)F)c1ccc(C(O)(C(F)(F)F)C(F)(F)F)cc1 [T0901317] (first compound 1 µM, partner dose 1.4 µM), the “cleaved PARP positive nuclei fraction” value in the experiment on WM115 worked out at 143%; with WM1716 it was 18.7%; in the experiment with WM1745 it was 116%; with WM3526, 62.1%; with WM3619, 196%; in the experiment on WM451Lu, 113%.

On to `Cc1nc(Nc2ncc(C(=O)Nc3c(C)cccc3Cl)s2)cc(N2CCN(CCO)CC2)n1` [dasatanib] + CCc1ccc(CCOc2ccc(CC3SC(=O)NC3=O)cc2)nc1 [pioglitazone] (first compound 0.004 µM, partner dose 2 µM), for which the “cleaved PARP positive nuclei fraction” value with WM115 came out at 160%; with WM1716, 186%; in the experiment with WM1745, 149%; in the experiment with WM3526, 244%; in the experiment on WM3619 it was 113%; in the experiment with WM451Lu it was 124%.
